Results reported in publication PMC4004385.
Results are given in words; binding and its absence hold for the method and conditions named. Binding seen in cells or lysates may run through a third protein. These calls come from enrichment with a bait or labelling near it, and not all partners need be listed. A no says only that the protein was not detected with the bait. For part of these data: Where a sequence is shown, tags or fusion partners need not be part of it. Blank lines part the entries; values can stand above or below the molecule they belong to.

By UniProt entry, the sequences of proteins in these tests, tags left out.
UniProt Q5NPS6: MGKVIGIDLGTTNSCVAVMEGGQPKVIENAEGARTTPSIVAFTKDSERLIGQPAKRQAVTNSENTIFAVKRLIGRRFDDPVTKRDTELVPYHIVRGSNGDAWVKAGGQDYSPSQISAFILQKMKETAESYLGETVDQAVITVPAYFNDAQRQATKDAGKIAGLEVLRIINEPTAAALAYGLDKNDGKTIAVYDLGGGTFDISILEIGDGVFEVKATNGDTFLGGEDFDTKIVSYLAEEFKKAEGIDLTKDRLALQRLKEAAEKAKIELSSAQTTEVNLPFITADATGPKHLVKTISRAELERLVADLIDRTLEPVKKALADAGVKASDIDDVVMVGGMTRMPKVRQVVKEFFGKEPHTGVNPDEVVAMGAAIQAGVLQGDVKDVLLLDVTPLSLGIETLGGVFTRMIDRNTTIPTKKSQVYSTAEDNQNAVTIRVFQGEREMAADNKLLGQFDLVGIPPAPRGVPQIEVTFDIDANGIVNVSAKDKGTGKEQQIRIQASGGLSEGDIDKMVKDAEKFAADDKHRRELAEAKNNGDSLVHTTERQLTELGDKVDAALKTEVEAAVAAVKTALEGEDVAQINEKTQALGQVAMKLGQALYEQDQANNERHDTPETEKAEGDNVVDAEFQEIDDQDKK
UniProt Q5NQ65: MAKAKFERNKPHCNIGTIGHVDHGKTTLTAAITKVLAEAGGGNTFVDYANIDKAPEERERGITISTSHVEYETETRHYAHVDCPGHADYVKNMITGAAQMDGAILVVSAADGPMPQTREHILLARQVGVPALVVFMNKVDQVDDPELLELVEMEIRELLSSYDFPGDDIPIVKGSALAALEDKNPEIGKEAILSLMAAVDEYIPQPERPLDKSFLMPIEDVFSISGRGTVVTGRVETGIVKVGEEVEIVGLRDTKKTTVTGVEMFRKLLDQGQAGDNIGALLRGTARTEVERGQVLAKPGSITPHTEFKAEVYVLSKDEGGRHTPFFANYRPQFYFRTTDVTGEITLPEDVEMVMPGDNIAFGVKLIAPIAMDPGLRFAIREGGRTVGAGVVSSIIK

How the values were obtained:
Assay in all cases: affinity purification with mass spectrometry; GST or GST-fusion bait expressed from pZ7-GST vectors in Z. mobilis ATCC 29191 (semi-aerobic culture); cleared lysate on a 1 ml glutathione sepharose GSTrap FF column with ice cooling; binding buffer 25 mM Tris-HCl pH 7.4, 200 mM NaCl, 1 mM EDTA, 1.5 mM beta-mercaptoethanol; eluted with 10 mM reduced glutathione; bands cut from Coomassie-stained SDS-PAGE gels and identified by peptide mass fingerprinting and LC-MS/MS; wild-type strain as negative control
[1] = biological target: T1, recombinant GST-AcpP fusion protein (acyl-carrier protein AcpP, ZZ6_0066) (Zymomonas mobilis ATCC 29191) (UniProt Q5NN07)
T1 sequence: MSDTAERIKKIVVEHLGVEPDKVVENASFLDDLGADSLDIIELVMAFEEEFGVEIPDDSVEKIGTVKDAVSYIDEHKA

[2] = biological target: T2, recombinant GST-KdsA fusion protein (2-dehydro-3-deoxyphosphooctonate aldolase KdsA, ZZ6_1604) (Zymomonas mobilis ATCC 29191) (UniProt Q5NME8)
T2 sequence: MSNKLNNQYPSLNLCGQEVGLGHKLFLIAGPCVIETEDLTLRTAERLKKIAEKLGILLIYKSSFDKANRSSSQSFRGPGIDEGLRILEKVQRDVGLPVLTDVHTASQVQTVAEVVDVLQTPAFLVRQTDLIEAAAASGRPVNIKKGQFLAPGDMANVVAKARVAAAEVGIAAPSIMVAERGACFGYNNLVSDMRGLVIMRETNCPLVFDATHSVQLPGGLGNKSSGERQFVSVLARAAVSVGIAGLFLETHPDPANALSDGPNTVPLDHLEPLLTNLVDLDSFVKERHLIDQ

[3] = biological target: Recombinant GST (heterologous recombinant GST expressed from pZ7-GST)

Molecule: 3-oxoacyl-(acyl-carrier-protein) synthase III (FabH) (enzyme)
binding [1]: no binding

Molecule: glyoxalase/bleomycin resistance protein/dioxygenase (Glo, ZZ6_1397; 128 aa) (enzyme)
binding [1]: no binding
binding [2]: no binding

Molecule: chaperone protein DnaK (ZZ6_0619) (from UniProt Q5NPS6 1-635)
binding [1]: no binding
binding [2]: binds

Molecule: 3-oxoacyl-(acyl-carrier-protein) synthase 2 (FabF) (enzyme)
binding [1]: no binding

B5: translation elongation factor Ts (Tsf; ZZ6_0173) (protein, UniProt Q9X5E8 1-307)
chain: MAEITAAAVKALRERTGAGMMDCKKALNEANGEMEAAVDWLRAKGLAAAAKKSGRQAAEGLVGVMIDGTKGAVLEVNSETDFVAKNEKFQDFVKGVTALVLEHGSDIDTLSKAPHPAGGSVNDVLTANIATIGENQALRRAALLEVENGVVVPYIHNQVAPGVGKIGVLVALESEAPSDFLESLGKQIAMHVAAATPLALDEDSLDDAAVERERAIAQEKAAESGKPAEIVTRMVEGAVAKYRKENALLSQIFVVDGKTRVSDVVSKAAKETGKPITLKQFVRFQLGEGIEKQETDFAAEVAAAAGV
binding [3]: no binding
binding [1]: no binding
binding [2]: binds

Now from value to molecule:

binding [1]: no binding
Molecule: short-chain dehydrogenase/reductase SDR (FabI) (enzyme)

binding [1]: no binding
binding [2]: binds
Molecule: translation elongation factor Tu (Tuf; ZZ6_0750) (from UniProt Q5NQ65 1-397)

binding [3]: no binding
binding [1]: binds
binding [2]: no binding
B1: pyruvate decarboxylase (PDC; ZZ6_1712) (enzyme, UniProt P06672 1-568)
chain: MSYTVGTYLAERLVQIGLKHHFAVAGDYNLVLLDNLLLNKNMEQVYCCNELNCGFSAEGYARAKGAAAAVVTYSVGALSAFDAIGGAYAENLPVILISGAPNNNDHAAGHVLHHALGKTDYHYQLEMAKNITAAAEAIYTPEEAPAKIDHVIKTALREKKPVYLEIACNIASMPCAAPGPASALFNDEASDEASLNAAVEETLKFIANRDKVAVLVGSKLRAAGAEEAAVKFADALGGAVATMAAAKSFFPEENPHYIGTSWGEVSYPGVEKTMKEADAVIALAPVFNDYSTTGWTDIPDPKKLVLAEPRSVVVNGIRFPSVHLKDYLTRLAQKVSKKTGALDFFKSLNAGELKKAAPADPSAPLVNAEIARQVEALLTPNTTVIAETGDSWFNAQRMKLPNGARVEYEMQWGHIGWSVPAAFGYAVGAPERRNILMVGDGSFQLTAQEVAQMVRLKLPVIIFLINNYGYTIEVMIHDGPYNNIKNWDYAGLMEVFNGNGGYDSGAGKGLKAKTGGELAEAIKVALANTDGPTLIECFIGREDCTEELVKWGKRVAAANSRKPVNKLL

binding [3]: no binding
binding [1]: binds
binding [2]: no binding
B2: glyceraldehyde-3-phosphate dehydrogenase (G3P; ZZ6_1034) (enzyme, UniProt P09316 1-337)
chain: MAVKVAINGFGRIGRLAARAILSRPDSGLELVTINDLGSVEGNAFLFKRDSAHGTYPGTVTTEGNDMVIDGKKIVVTAERDPANLPHKKLGVDIVMECTGIFTNTEKASAHLTAGAKKVLISAPAKGDVDRTVVYGVNHKDLTADDKIVSNASCTTNCLAPVLHVLQQKIGIVRGLMTTVHSFTNDQRILDQIHSDLRRARTASASMIPTSTGAARAVALVIPELKGKLDGISIRVPTPDVSLVDFTFVPQRDTTAEEINSVLKAAADTGDMTGVLGYTDEPLVSRDFYSDPHSSTVDSRETAVLEGKLARVVAWYDNEWGFSNRMVDTAAQMAKTL

binding [3]: no binding
binding [1]: binds
binding [2]: no binding
B3: (3R)-hydroxymyristoyl-ACP dehydratase (FabZ; ZZ6_0182) (enzyme, UniProt Q9X5F5 1-158)
chain: MTETTEKVESIGPLDVKRVMAALPHRFPMLLVDRVETLIPGEKIVAIKAVTINEPFFTGHFPGNPIMPGVLIVEALAQAAGVLAIESLGLTGTGKLVYFMAINETKFRIPVEPGILLRLEVEFLQKRAKICKFKARALIEDKVAAETEFTAMIADPAN

binding [3]: no binding
binding [1]: binds
binding [2]: no binding
B4: holo-acyl-carrier-protein synthase (AcpS; ZZ6_1409) (enzyme, UniProt Q5NLS7 1-134)
chain: MIIGIGTDLCNIDRITTILGKKESGRFIKRLFSCEEIEASSAFSMTKAAFFAKRFAAKEAFVKALGTGFRHSISFQDISISNDSLGAPKVNISGKAALLLEEKKPPRHTLSIHLSLSDDHPWALAFVVIEACPE

binding [3]: no binding
binding [1]: no binding
binding [2]: binds
B6: cytidine 5'-triphosphate (CTP) synthase (PyrG; ZZ6_0800) (enzyme, UniProt Q5NQB9 1-544)
chain: MARFIFITGGVVSSLGKGLMAASLAALLQERGFRVRIRKFDPYLNVDPGTMSPYQHGEVYVTDDGAETDLDLGHYERFSGVPSRRSDNITSGRIYQNIIAKERRGDYLGATVQVIPHVTDAIKDFARDDTDDLDFVLCEIGGTVGDIESLPFIEAIRQLKNDLGRGNVVFVHLTLVPYIAAAGELKTKPTQHSVRDLTSFGIQPDVLVCRTEHPLPDSERSKIALFCNVPKEAVIPALDAKSIYDVPLHYHAEGLDKAVLSAFGLNIETPLDLHRWKEISDRLANPEGEVTIGVVGKYVGLQDAYKSLHEALVHGGIANRVKVNIVWLDAEMFEGNNPEAAEALSSLHAILVPGGFGERGSEGKIAAVKFAREHKVPFFGICLGMQMACIEGARNTAGLKKASSSEFGPSEEPVIGLITEWERDGEREERAADGDLGGTMRLGAYPAVLKAGSQVAEIYNSREITERHRHRYEVNIHYKEPLEKGGLVFSGMSPDGLLPEIVERPDHPWFIGVQFHPELKSKPFDPHPLFSDFVAAALKQSRLV
